PMC2323224
These are yes or no findings as the source states them, for the method shown. Some entries that bind do so weakly or less than the wild type.

By UniProt entry, the sequences of proteins in these tests, tags left out.
UniProt Q0PBP3: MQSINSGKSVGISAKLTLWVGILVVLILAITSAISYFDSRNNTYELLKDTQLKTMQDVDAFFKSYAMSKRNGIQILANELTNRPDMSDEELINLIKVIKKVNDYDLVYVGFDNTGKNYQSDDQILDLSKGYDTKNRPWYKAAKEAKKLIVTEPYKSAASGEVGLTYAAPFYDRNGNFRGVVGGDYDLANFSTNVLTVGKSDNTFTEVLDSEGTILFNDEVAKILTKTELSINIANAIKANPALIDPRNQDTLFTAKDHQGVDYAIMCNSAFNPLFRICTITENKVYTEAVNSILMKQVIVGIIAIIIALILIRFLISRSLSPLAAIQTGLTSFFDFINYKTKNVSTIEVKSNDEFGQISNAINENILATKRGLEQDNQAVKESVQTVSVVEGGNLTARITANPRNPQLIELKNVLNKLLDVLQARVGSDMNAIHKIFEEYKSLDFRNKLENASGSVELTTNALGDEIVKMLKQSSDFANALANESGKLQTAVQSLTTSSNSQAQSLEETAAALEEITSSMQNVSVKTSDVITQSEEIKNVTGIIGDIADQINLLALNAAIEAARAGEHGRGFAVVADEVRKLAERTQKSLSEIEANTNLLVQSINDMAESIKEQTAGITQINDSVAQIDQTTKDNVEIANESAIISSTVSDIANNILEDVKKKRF
UniProt Q0P9E4: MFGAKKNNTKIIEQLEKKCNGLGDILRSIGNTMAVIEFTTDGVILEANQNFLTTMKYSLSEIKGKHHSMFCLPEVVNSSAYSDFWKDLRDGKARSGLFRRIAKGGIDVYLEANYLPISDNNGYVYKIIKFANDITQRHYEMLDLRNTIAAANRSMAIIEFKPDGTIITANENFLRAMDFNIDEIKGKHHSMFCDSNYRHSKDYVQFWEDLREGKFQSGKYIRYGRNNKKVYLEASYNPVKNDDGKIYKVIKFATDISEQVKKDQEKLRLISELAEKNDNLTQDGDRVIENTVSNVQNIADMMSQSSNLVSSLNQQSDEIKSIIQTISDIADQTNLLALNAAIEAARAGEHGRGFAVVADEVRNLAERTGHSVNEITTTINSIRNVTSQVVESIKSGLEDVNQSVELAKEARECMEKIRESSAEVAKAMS
UniProt P0C635: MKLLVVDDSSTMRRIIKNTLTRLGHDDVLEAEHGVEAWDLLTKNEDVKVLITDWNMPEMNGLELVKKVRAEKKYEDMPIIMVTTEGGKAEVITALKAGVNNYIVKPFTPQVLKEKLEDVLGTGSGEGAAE

How the values were obtained:
Assay in all cases: two-hybrid; LexA-based yeast two-hybrid; full length ORFs as LexA BD fusions (MAL62 promoter, strain Y309) mated with AD fusions (GAL1 promoter, strain RFY231); two-phase pooled matrix screen plus a library screen of 94 BD strains; LEU2 and lacZ reporters, background-corrected combined score >= 1; positives retested in one-on-one matings
[1] = target: T1, CheA (C. jejuni NCTC11168) (UniProt Q0PBM2)
T1 sequence: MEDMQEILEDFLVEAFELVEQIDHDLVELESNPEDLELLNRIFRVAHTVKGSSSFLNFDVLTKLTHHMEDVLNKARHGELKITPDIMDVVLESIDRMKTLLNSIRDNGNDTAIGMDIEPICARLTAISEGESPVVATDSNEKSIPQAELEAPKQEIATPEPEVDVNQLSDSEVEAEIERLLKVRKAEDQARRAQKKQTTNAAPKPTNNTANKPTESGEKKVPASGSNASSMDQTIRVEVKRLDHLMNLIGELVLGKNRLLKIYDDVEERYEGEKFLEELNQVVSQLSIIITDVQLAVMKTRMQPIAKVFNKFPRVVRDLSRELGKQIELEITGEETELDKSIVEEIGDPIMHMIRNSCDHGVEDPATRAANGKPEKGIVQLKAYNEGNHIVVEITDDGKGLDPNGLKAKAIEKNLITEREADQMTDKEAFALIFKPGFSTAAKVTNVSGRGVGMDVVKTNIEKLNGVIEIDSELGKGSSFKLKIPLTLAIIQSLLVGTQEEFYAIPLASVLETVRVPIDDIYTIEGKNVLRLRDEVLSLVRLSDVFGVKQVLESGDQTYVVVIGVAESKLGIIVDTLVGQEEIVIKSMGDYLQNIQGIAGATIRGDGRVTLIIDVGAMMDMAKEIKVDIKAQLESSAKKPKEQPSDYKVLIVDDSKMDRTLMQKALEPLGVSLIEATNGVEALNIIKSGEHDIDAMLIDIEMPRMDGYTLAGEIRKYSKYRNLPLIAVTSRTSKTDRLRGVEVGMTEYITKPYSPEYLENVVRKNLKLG

[2] = target: CheW (C. jejuni NCTC11168) (UniProt Q0PBM3)
[3] = target: T2, FabG (C. jejuni NCTC11168) (UniProt Q0PB75)
T2 sequence: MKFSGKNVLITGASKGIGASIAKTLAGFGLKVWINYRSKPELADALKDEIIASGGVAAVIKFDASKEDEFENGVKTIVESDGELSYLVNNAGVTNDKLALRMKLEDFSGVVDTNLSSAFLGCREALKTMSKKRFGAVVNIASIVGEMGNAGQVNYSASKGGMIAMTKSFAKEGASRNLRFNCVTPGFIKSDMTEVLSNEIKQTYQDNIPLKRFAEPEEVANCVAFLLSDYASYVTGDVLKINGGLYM

[4] = target: Cj0262c (C. jejuni NCTC11168) (UniProt Q0PBP3)
[5] = target: Cj0448c (C. jejuni NCTC11168) (UniProt Q0PB65)
[6] = target: Cj1110c (C. jejuni NCTC11168) (UniProt Q0P9E4)
[7] = target: CheY (C. jejuni NCTC11168) (UniProt P0C635)

## CheW (from UniProt Q0PBM3 1-173)
[1]
  binding: binds

## Cj0262c (from UniProt Q0PBP3 1-665)
[2]
  binding: binds

B1: FabF (protein, UniProt Q0PB68 1-404)
chain: MKRVVVTGIGMINALGLDKESSFKAICNGESGVNKITLFDATDFPVQIAAEVKNFDPLEVVDGKEVKKIDRFIQLGIKAAREAMQDAGFSEELDKEEFGIVSASGIGGLPNIEKNSIICSERGPRKISPFFIPSALVNMLGGLISIEHGLKGPNISCVTACAAGTHAIGEAYKSIALGNAKKMLVIGAEAAICPVGIGGFASMKALSTRNEDPQHASRPFDKERDGFVMGEGAGALVFEEYEEAKKRGATIYAELIGFGESADAHHITSPTLDGPLRAMKKALNMAGNPKVDYINAHGTSTPVNDKNETAAIKELFGNNIPLISSTKGQTGHCLGAAGAIEAVVSVMVLRDGVVPPTINQLVKDDECDLDYIPNISRKVDLKVVMSNSFGFGGTNGCVVFKKVD
[3]
  binding: binds

B2: CheV (protein, UniProt Q0PBM1 1-318)
chain: MFDENIVKTGSNEMELVDFRIFKQGHDKVYEGIYGVNVSKVREIIKIPSLTELPGVPDYIEGIFDLRGVVIPVVNLAKWMQITEPESTMLKPRVIITEFSNILIGFIVHEAKRIRRINWKDIEPATFSTGSGALDKGKITGVTRIENDEVLLILDLESVVEDLGIYAPKTDIDFGKIEKFTGTALILDDSMTARKRVKEMMQQMGFQVVEAKDGVEGINKLEELSQIYGESLNDTLKIIVSDVEMPQMDGFHFAARIKEDPRFKDIPIVFNSSLSNEFMNEKGVQEAGGEGYLVKFNASDFFNEIAKVIKKHQSQEQG
[4]
  binding: binds
[5]
  binding: binds
[6]
  binding: binds

B3: CheA (protein, UniProt Q0PBM2 1-769)
chain: MEDMQEILEDFLVEAFELVEQIDHDLVELESNPEDLELLNRIFRVAHTVKGSSSFLNFDVLTKLTHHMEDVLNKARHGELKITPDIMDVVLESIDRMKTLLNSIRDNGNDTAIGMDIEPICARLTAISEGESPVVATDSNEKSIPQAELEAPKQEIATPEPEVDVNQLSDSEVEAEIERLLKVRKAEDQARRAQKKQTTNAAPKPTNNTANKPTESGEKKVPASGSNASSMDQTIRVEVKRLDHLMNLIGELVLGKNRLLKIYDDVEERYEGEKFLEELNQVVSQLSIIITDVQLAVMKTRMQPIAKVFNKFPRVVRDLSRELGKQIELEITGEETELDKSIVEEIGDPIMHMIRNSCDHGVEDPATRAANGKPEKGIVQLKAYNEGNHIVVEITDDGKGLDPNGLKAKAIEKNLITEREADQMTDKEAFALIFKPGFSTAAKVTNVSGRGVGMDVVKTNIEKLNGVIEIDSELGKGSSFKLKIPLTLAIIQSLLVGTQEEFYAIPLASVLETVRVPIDDIYTIEGKNVLRLRDEVLSLVRLSDVFGVKQVLESGDQTYVVVIGVAESKLGIIVDTLVGQEEIVIKSMGDYLQNIQGIAGATIRGDGRVTLIIDVGAMMDMAKEIKVDIKAQLESSAKKPKEQPSDYKVLIVDDSKMDRTLMQKALEPLGVSLIEATNGVEALNIIKSGEHDIDAMLIDIEMPRMDGYTLAGEIRKYSKYRNLPLIAVTSRTSKTDRLRGVEVGMTEYITKPYSPEYLENVVRKNLKLG
[7]
  binding: binds
